Test results reported in PMC5541716.
Results are given in words; binding and its absence hold for the method and conditions named. In cells and extracts the contact can be indirect. Some entries that bind do so weakly or less than the wild type.

Sequences of proteins named here, by UniProt entry; tags and fusion partners are left off.
UniProt P54098: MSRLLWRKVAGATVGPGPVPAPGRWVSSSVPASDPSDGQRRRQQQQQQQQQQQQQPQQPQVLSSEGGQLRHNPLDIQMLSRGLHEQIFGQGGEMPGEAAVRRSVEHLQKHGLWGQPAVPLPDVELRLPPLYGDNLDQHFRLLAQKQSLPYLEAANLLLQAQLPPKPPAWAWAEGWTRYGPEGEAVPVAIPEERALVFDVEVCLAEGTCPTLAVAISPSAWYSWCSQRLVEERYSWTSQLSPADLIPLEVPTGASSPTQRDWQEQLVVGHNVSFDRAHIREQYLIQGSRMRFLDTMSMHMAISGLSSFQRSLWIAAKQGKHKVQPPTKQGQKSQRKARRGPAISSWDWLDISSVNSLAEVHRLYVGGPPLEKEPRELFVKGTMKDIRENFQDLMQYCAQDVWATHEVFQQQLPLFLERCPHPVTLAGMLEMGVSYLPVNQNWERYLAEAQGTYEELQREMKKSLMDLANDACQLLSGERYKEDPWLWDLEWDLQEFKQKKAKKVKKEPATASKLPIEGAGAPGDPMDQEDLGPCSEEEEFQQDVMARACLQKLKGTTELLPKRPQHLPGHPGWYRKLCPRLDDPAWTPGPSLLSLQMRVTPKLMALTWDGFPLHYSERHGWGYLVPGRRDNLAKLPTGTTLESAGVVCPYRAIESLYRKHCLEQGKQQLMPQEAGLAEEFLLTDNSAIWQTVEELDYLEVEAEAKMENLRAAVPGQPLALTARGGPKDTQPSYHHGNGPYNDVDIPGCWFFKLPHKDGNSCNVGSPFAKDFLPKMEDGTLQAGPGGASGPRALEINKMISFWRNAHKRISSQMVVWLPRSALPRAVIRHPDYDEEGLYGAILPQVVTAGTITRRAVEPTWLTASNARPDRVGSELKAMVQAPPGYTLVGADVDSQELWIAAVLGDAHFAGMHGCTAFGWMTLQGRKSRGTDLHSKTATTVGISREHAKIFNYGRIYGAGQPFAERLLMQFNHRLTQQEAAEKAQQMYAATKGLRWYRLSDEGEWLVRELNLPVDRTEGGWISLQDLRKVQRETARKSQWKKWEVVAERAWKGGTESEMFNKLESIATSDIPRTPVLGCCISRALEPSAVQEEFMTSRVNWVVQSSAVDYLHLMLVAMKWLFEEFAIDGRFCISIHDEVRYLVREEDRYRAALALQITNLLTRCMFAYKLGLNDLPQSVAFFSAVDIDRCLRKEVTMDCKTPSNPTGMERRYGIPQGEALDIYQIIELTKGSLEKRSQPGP

Target: histone H2A member X (H2AX), endogenous in HepG2 cells (human (endogenous in HepG2)) (UniProt P16104)
Experiment: co-IP; HepG2 cells overexpressing ASPH or control vector; immunoprecipitation with H2AX antibody, immunoblot with ASPH, POLG and mTFA antibodies

- binding: binds
Substance: DNA polymerase gamma (POLG), endogenous in HepG2 cells (from UniProt P54098 1-1239) (enzyme)
